Molecules are shown by their SMILES. This is one part of the list. Further columns of the screen follow, without active or inactive calls. Compounds called inactive in the main read-out are mostly missing here. Words in brackets tell the shape of the fitted curve; partial curves, single points and poor fits give uncertain potencies.

The assay is described as follows: qHTS Assay for Lipid Storage Modulators in Drosophila S3 Cells.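 For cell number change: cells counted by Cell Tracker Red CMTPX staining in the red channel.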 As to conditions: BODIPY lipid droplet fluorescence, 18-24 h; for cell number change: measured here: cell count max response, cells fed with added oleic acid. In short, it runs like this:
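Laser-scanning cytometry quantifies lipid droplet accumulation (500–530 nm total intensity; droplet/cell object ratio) in oleic acid-fed (400 uM added) Drosophila S3 cells treated with a concentration series. 20 uM Triacsin C defined 100% inhibition.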

Where [1] appears, read: measured here: cell number channel AC50, cells fed with added oleic acid.
Where [2] appears, read: measured here: lipid fluorescence (Fed channel) AC50, cells fed with added oleic acid.

The AC50 is the concentration giving half of the maximal activity seen. As for `CCCC/C(C)=C/[C@@H](NP(=O)(c1ccccc1)c1ccccc1)c1ccccc1`, the cell number change is -62.9%. Moreover, the AC50 under setting [1] is 20.6 µM [falling, single point]. Also, the concentration at half-maximal activity (AC50) under setting [2] was 4.11 µM [falling, full curve, poor fit].

For the molecule `C[N+]1(C)[C@@H]2CC[C@H]1CC(OC(=O)C(c1ccccc1)c1ccccc1)C2` (stereo partly drawn), the cell number change is -6.94%.

As to `CC1(C(O)(C#CCN2CCCCC2)c2ccccc2)CCCC1` (stereo not drawn), the cell number change is -39%. Besides, the AC50 under setting [1] is 23.1 µM [falling, single point]. Under setting [2], the AC50 is 25.9 µM [falling, partial curve, poor fit].

`Nc1c(C(=O)NCCN2CCOCC2)c2nc3ccccc3nc2n1Cc1ccco1`: the cell number change was -5.69%. In addition, the AC50 under setting [2] is 0.00517 µM [rising, full curve, poor fit].

Take `COc1ccccc1CN1CCN(C(=O)COc2ccc3ccccc3c2)CC1`: the cell number change came to 19.1%. Moreover, the AC50 under setting [1] was 6.51 µM [rising, partial curve]. The AC50 under setting [2] is 1.46 µM [rising, partial curve].

With `CC(c1ccccc1)n1cncc1C(=O)N1CCCC1=O` (stereo not drawn), the cell number change came out at 6.28%. The AC50 under setting [2] is 0.116 µM [falling, full curve, poor fit].

`CN(C)c1ccc(/C=C2\CC3C4CC=C5CC(O)CCC5(C)C4CCC3(C)C2=O)cc1` (stereo not drawn): the cell number change was -12.4%. Besides, under setting [2], the AC50 is 6.51 µM [falling, single point].

With `COc1ccccc1N1CCN(Cc2cccc(OC)c2O)CC1`, the cell number change stood at 9.73%. For the same molecule, the AC50 under setting [2] is 3.66 µM [rising, full curve].

With `CCCC(C)C(=O)NC1CCSC1=O` (stereo not drawn), the cell number change was -2.38%. For the same molecule, the AC50 under setting [2] is 29.1 µM [falling, single point].

For `COc1cc(CN2CCN(C(=O)COc3ccccc3)CC2)cc(OC)c1OC`, the cell number change was found to be 0.594%.

Take `O=c1[nH]c(=O)n(-c2ccc(F)cc2)c(O)c1C=Nc1ccccc1N1CCCC1`: the cell number change turned out to be 102%.

For the molecule `O=NN1CCCCC1`, the cell number change was found to be 25.2%. Also, the AC50 under setting [2] is 0.164 µM [rising, full curve, poor fit].

For `CC12CNCC(C)(CNC1)C2O` (stereo not drawn), the cell number change stood at 6.9%. The half-maximal activity concentration (AC50) under setting [2] is 2.06 µM [rising, single point].

As to `Cc1ccc(-n2c(/C=C/c3ccc4c(c3)OCO4)nc3ccccc3c2=O)cc1`, the cell number change turned out to be 47.1%. The AC50 under setting [1] was 1.16 µM [rising, full curve]. Further, the AC50 under setting [2] is 1.3 µM [rising, full curve].

As for `CCOC(=O)C1=C(C)OC(N)=C(C(=O)OCC)C12C(=O)Nc1ccc(Br)cc12` (stereo not drawn), the cell number change came to 15.3%.

Take `Fc1ccc(CCNCc2cccc(Cl)c2)cc1`: the cell number change was -8.22%.

For the molecule `CCN1CCN(Cc2cccnc2)CC1`, the half-maximal activity concentration (AC50) under setting [2] is 0.259 µM [rising, full curve, poor fit].

For the molecule `CCOC(=O)c1c(C)n(CC(O)CN2CCOCC2)c2cc(Br)c(OC)cc12` (stereo not drawn), the cell number change stood at 12.5%. Under setting [2], the AC50 was 4.11 µM [rising, full curve, poor fit].

With `O=C(C(=O)N1CCOCC1)c1cn(Cc2ccccc2Cl)c2ccccc12`, the cell number change stood at 25.4%.

`CN1C(=O)NC(=O)/C(=C/c2ccc([N+](=O)[O-])s2)C1=O`: the cell number change is -32.2%. Besides, the half-maximal activity concentration (AC50) under setting [2] was 16.4 µM [falling, partial curve, poor fit].

As to `CC(Cc1ccccc1)NC(=O)NC(C)Cc1ccccc1` (stereo not drawn), the cell number change turned out to be 69.7%. For the same molecule, the AC50 under setting [1] was 14.6 µM [rising, partial curve].

Turning to `CC(C#N)CCC#N` (stereo not drawn), the cell number change was -25.5%. In addition, under setting [1], the half-maximal activity concentration (AC50) was 0.461 µM [falling, full curve, poor fit]. Further, the AC50 under setting [2] was 0.731 µM [falling, partial curve, poor fit].

On to `Cc1cc(Cl)ccc1OCC(=O)O`, for which the cell number change was -21.4%. Also, the concentration at half-maximal activity (AC50) under setting [1] was 0.0231 µM [falling, full curve]. The AC50 under setting [2] was 0.231 µM [falling, full curve].

Take `Cc1ccccc1NC1=NCCCS1`: the cell number change is -34.6%. Moreover, the AC50 under setting [1] was 4.61 µM [falling, full curve, poor fit]. For the same molecule, the AC50 under setting [2] is 5.8 µM [falling, full curve].

Turning to `Cc1ccc2c(c1)C1CN(C)CCC1N2C(=O)COc1ccc(S(=O)(=O)N2CCOCC2)cc1` (stereo not drawn), the cell number change is -1.26%. In addition, the half-maximal activity concentration (AC50) under setting [2] is 0.651 µM [falling, single point].

For `O=P(Nc1ccccc1)(Nc1ccccc1)Oc1cccc(Cl)c1`, the cell number change is -42.7%. For the same molecule, under setting [1], the AC50 was 32.6 µM [falling, single point].

As to `COC(=O)C1=C(c2ccccc2OCc2ccccc2)C[C@@H]2CC[C@H]1N2C(=O)NCCOc1ccccc1`, the cell number change was -8.1%. The half-maximal activity concentration (AC50) under setting [1] was 0.58 µM [falling, single point]. The AC50 under setting [2] was 0.731 µM [falling, full curve, poor fit].

Turning to `COc1cccc(-n2c(-c3ccoc3)nc3ccccc3c2=O)c1`, the cell number change was determined as 5.57%. Moreover, the half-maximal activity concentration (AC50) under setting [1] was 2.31 µM [rising, partial curve]. In addition, the AC50 under setting [2] is 3.26 µM [rising, partial curve].

Take `CN1CCN(C(=O)COc2ccc(N(C)S(=O)(=O)c3ccc(F)cc3)cc2)CC1`: the cell number change was -31.7%. Moreover, the concentration at half-maximal activity (AC50) under setting [1] was 0.00651 µM [falling, full curve, poor fit].

`CCCN1C[C@H](CSC)C[C@@H]2c3cccc4[nH]cc(c34)C[C@H]21`: the AC50 under setting [1] is 0.00411 µM [rising, full curve, poor fit].

`Cc1cc(C=C(C#N)C#N)ccc1N1CCCC1`: the cell number change stood at 3.28%. Under setting [1], the concentration at half-maximal activity (AC50) is 0.13 µM [falling, full curve, poor fit]. For the same molecule, the AC50 under setting [2] is 6.51 µM [falling, single point].

Regarding `CNC(=O)c1cccn(Cc2ccc(C(F)(F)F)cc2)c1=O`, the AC50 under setting [1] is 6.51 µM [rising, single point] and the concentration at half-maximal activity (AC50) under setting [2] was 6.51 µM [rising, single point].

With `CCCCc1ccc(C(=O)O)nc1`, the cell number change came to 17.2%. Also, under setting [2], the AC50 is 29.1 µM [rising, single point].

For the molecule `CN1C(=O)N(C)C(=O)C2(Cc3ccccc3N3CCOCC32)C1=O` (stereo not drawn), the cell number change was -53.9%. Further, the AC50 under setting [1] was 18.4 µM [falling, single point].

As to `CCOP(=O)(OCC)C(NC(=O)Cc1ccccc1)C(Cl)(Cl)Cl` (stereo not drawn), the cell number change is -20.3%.

In the case of `CN(CC1COc2ccccc2O1)c1nc(-c2cccnc2)nc2ccccc12` (stereo not drawn), the cell number change is -15%. For the same molecule, the AC50 under setting [2] was 0.58 µM [rising, single point].

For `O=C(CCCOc1ccc(Cl)cc1Cl)N1CCC2(CC1)OCCO2`, the cell number change was -1.56%. The AC50 under setting [2] is 29.1 µM [rising, single point].

In the case of `CC(C)C(=O)Nc1ccc(N2CCN(C)CC2)c(F)c1`, the cell number change came to 65.8%. Moreover, the AC50 under setting [1] was 29.1 µM [rising, single point]. Besides, the AC50 under setting [2] is 29.1 µM [rising, single point].
